Source: article PMC10693084, “Novel 8-Methoxycoumarin-3-Carboxamides with potent anticancer activity against liver cancer via targeting caspase-3/7 and β-tubulin polymerization” (BMC Chemistry, 2023)

Tested on: human liver carcinoma HepG2 cells
Experiment: MTT cytotoxicity assay against HepG2 cells
Format: cell-based
Conditions: 24 h treatment
Experimental: To assess the antitumor properties of these compounds, we utilized the 3-(4,5-dimethylthiazol-2-yl)-2,5-diphenyl tetrazolium bromide (MTT) colorimetric assay, a widely used method to evaluate cell viability and cytotoxicity.
Following the incubation period, the cells were subjected to various concentrations of the prepared molecules and subsequently incubated for a duration of 24 h. […] Subsequently, a volume of 100 μL of dimethyl sulfoxide (DMSO) was introduced into each well in order to facilitate the dissolution of the purple formazan that had been generated. The quantification of the color intensity of the formazan product, which serves as an indicator of the cellular growth condition, is performed by employing an ELISA plate reader set at a wavelength of 570 nm. The experimental conditions were implemented with a minimum of three replicates, and the experiments were conducted on at least three separate occasions.

## CN[C@@H]1C[C@H]2O[C@@](C)([C@@H]1OC)n1c3ccccc3c3c4c(c5c6ccccc6n2c5c31)C(=O)NC4 [STU, staurosporine, reference compound]
  IC50: 8.4 ± 0.51 µM
